Measured values published in doi:10.1101/2022.01.12.476066.

By UniProt entry, the sequences of proteins in these tests, tags left out. Where a name states a change or a piece, a line headed by the entry shows the natural chain unless it says otherwise. Residues count along the entry.
UniProt O95398, residues 43-923: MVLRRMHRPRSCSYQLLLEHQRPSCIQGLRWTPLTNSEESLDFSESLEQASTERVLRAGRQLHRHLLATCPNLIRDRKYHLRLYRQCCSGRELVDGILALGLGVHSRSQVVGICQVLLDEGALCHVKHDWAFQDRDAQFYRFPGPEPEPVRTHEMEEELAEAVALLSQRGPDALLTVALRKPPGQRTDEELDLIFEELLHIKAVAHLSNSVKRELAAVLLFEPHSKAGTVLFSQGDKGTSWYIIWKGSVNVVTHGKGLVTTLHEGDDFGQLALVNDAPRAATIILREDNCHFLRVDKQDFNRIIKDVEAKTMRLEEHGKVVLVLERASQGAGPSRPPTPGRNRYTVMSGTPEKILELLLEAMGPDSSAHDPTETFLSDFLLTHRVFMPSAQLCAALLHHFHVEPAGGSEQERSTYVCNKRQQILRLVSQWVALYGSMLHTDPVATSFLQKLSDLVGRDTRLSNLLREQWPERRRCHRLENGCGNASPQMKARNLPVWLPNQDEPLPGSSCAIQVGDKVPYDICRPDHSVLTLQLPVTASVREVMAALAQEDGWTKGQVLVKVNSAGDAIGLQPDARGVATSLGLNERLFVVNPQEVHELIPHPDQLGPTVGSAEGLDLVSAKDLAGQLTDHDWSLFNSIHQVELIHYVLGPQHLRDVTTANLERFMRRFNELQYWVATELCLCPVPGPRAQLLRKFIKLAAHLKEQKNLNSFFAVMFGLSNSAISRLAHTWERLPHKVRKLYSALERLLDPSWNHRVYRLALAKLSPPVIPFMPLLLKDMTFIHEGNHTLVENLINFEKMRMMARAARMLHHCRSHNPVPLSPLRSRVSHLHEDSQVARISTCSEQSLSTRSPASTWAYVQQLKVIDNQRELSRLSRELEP
UniProt P07355: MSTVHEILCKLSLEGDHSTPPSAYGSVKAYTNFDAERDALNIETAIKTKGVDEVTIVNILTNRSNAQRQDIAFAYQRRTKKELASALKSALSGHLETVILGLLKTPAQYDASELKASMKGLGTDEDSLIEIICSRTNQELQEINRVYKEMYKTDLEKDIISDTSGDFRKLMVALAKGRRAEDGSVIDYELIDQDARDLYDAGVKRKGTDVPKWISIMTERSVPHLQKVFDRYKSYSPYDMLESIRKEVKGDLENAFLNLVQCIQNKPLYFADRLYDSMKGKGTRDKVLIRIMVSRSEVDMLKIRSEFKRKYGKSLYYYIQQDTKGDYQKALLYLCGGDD
UniProt P52948, residues 1-880: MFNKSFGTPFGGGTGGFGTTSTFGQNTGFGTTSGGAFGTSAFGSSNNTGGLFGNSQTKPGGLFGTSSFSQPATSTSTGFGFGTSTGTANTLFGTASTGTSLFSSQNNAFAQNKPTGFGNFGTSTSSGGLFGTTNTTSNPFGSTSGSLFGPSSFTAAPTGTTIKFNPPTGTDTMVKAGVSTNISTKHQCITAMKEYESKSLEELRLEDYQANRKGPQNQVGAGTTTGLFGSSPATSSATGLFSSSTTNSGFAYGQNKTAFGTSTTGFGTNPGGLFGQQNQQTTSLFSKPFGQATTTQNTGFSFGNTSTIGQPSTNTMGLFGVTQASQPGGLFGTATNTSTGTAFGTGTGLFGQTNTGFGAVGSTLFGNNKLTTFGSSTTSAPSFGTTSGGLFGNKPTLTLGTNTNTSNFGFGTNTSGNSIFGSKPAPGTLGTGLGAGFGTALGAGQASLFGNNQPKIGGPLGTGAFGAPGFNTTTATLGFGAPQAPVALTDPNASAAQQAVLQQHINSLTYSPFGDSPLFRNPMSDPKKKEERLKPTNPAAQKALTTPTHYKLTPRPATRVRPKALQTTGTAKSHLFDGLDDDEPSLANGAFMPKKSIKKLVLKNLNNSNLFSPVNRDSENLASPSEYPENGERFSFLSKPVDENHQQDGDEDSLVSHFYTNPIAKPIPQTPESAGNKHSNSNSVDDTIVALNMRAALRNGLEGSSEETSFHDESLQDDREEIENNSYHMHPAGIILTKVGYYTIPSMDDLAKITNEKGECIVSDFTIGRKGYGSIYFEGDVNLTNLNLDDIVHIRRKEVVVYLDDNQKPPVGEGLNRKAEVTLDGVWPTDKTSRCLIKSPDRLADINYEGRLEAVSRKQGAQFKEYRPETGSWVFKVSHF
UniProt O75925: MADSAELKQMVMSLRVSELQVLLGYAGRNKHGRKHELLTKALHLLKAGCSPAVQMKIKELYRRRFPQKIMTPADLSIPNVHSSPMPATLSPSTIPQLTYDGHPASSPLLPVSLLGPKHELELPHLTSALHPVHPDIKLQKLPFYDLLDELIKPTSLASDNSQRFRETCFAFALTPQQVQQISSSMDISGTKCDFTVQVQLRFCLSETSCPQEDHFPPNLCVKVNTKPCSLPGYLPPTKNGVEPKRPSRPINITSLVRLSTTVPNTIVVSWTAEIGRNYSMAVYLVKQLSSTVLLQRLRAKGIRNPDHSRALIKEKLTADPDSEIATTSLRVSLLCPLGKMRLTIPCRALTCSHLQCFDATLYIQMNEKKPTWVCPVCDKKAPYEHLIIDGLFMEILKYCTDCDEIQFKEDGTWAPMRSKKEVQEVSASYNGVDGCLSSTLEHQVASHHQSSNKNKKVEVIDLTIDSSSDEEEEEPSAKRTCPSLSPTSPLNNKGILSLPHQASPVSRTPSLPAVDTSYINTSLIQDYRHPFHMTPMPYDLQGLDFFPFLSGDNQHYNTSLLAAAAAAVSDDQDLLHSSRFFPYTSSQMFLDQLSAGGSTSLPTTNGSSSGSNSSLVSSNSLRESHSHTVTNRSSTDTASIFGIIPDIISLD
UniProt P49792: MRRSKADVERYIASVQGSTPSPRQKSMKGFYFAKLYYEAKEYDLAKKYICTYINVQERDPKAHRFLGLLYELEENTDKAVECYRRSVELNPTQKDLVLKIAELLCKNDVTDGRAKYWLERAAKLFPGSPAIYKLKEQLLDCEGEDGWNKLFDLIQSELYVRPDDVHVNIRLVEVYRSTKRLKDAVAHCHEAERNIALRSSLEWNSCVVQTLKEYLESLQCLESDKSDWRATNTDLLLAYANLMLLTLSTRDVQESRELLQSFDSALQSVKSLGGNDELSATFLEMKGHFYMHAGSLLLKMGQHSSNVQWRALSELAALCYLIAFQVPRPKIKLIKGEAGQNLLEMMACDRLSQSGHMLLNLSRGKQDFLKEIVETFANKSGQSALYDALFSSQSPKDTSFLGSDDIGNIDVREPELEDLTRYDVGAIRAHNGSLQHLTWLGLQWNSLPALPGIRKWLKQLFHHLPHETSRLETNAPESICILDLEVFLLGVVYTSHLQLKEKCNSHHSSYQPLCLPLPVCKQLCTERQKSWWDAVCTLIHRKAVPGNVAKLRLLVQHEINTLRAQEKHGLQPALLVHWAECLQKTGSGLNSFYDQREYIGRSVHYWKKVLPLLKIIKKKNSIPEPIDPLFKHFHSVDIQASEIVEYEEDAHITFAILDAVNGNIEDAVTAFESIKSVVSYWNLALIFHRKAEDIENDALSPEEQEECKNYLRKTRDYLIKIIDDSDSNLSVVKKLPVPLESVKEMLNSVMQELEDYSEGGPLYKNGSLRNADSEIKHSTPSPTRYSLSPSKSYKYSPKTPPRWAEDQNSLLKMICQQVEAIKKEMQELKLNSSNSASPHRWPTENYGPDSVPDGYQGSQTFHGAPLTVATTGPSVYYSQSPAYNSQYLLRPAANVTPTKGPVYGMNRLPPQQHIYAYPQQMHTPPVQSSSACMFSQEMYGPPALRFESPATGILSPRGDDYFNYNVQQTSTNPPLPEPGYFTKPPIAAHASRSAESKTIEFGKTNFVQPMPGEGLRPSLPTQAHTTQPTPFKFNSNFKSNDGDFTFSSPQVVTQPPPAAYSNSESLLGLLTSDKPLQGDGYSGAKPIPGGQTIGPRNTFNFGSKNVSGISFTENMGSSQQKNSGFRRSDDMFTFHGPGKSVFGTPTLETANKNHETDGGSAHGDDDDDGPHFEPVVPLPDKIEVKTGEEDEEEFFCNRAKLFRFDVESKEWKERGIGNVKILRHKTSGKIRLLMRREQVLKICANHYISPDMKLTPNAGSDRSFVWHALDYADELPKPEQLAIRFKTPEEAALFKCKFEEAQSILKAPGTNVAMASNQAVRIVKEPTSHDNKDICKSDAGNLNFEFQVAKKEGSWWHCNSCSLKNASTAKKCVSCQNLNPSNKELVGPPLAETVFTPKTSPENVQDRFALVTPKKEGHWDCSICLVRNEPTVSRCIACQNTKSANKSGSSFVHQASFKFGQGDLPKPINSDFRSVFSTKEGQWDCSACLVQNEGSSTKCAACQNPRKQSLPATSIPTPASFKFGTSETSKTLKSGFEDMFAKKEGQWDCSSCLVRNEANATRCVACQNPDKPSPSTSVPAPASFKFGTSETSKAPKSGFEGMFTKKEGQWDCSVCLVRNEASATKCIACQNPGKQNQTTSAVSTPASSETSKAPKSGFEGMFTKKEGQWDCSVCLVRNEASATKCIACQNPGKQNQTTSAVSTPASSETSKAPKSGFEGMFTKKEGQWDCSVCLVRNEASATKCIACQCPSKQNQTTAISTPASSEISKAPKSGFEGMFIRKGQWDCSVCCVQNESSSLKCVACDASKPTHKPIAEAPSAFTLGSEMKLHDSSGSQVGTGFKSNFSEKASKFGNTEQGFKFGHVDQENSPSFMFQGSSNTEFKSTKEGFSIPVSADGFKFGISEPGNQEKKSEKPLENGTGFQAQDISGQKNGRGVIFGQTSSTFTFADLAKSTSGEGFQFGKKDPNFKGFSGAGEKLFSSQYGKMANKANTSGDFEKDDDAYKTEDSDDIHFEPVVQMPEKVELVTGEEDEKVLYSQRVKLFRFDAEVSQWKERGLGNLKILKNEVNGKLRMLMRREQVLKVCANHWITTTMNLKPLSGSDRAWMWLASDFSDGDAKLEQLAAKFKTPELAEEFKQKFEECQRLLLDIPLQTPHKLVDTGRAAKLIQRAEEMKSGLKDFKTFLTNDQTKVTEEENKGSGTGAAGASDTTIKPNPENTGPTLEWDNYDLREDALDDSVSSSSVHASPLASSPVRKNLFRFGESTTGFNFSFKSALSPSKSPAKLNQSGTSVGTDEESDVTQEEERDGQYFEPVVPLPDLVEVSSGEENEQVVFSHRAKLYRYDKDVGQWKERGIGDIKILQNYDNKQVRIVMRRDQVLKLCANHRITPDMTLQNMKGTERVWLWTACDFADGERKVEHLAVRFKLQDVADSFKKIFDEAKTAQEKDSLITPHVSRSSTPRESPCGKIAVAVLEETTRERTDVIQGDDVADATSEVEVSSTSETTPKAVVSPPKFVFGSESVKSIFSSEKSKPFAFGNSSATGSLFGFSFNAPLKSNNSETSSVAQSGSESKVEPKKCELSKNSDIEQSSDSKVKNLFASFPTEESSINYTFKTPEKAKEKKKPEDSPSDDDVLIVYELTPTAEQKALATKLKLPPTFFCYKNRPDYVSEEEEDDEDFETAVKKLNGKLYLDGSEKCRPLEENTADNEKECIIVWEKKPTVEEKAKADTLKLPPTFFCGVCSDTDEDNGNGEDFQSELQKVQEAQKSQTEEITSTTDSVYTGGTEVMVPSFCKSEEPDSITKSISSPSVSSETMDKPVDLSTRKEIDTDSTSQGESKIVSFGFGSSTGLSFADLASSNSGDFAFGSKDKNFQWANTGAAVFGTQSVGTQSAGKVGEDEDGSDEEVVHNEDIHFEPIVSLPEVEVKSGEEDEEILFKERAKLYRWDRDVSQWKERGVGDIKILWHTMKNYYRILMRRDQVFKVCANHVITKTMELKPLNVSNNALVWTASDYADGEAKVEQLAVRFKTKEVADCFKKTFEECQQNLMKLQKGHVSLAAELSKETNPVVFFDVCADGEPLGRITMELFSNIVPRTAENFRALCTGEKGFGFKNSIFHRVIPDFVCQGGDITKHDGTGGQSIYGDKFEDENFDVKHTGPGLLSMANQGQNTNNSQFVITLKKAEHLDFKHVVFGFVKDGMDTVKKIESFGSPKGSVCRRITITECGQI
UniProt P63165, residues 1-97: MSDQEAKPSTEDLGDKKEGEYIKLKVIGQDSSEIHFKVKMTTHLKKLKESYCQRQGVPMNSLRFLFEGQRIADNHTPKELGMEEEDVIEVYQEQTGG
UniProt P61956: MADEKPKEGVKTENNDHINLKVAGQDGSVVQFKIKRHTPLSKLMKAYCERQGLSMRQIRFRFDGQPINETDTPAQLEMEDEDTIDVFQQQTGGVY
UniProt P55854, residues 1-92: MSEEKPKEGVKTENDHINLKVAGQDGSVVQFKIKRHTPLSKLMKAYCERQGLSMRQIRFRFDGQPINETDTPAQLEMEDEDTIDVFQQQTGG
UniProt P63279: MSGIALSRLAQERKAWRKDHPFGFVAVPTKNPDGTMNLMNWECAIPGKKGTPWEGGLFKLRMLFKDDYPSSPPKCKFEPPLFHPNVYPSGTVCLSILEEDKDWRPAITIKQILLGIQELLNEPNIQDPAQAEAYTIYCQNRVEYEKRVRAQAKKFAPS

B1: SART1 (protein, UniProt O43290 1-800)
chain: MGSSKKHRGEKEAAGTTAAAGTGGATEQPPRHREHKKHKHRSGGSGGSGGERRKRSRERGGERGSGRRGAEAEARSSTHGRERSQAEPSERRVKREKRDDGYEAAASSKTSSGDASSLSIEETNKLRAKLGLKPLEVNAIKKEAGTKEEPVTADVINPMALRQREELREKLAAAKEKRLLNQKLGKIKTLGEDDPWLDDTAAWIERSRQLQKEKDLAEKRAKLLEEMDQEFGVSTLVEEEFGQRRQDLYSARDLQGLTVEHAIDSFREGETMILTLKDKGVLQEEEDVLVNVNLVDKERAEKNVELRKKKPDYLPYAEDESVDDLAQQKPRSILSKYDEELEGERPHSFRLEQGGTADGLRERELEEIRAKLRLQAQSLSTVGPRLASEYLTPEEMVTFKKTKRRVKKIRKKEKEVVVRADDLLPLGDQTQDGDFGSRLRGRGRRRVSEVEEEKEPVPQPLPSDDTRVENMDISDEEEGGAPPPGSPQVLEEDEAELELQKQLEKGRRLRQLQQLQQLRDSGEKVVEIVKKLESRQRGWEEDEDPERKGAIVFNATSEFCRTLGEIPTYGLAGNREEQEELMDFERDEERSANGGSESDGEENIGWSTVNLDEEKQQQDFSASSTTILDEEPIVNRGLAAALLLCQNKGLLETTVQKVARVKAPNKSLPSAVYCIEDKMAIDDKYSRREEYRGFTQDFKEKDGYKPDVKIEYVDETGRKLTPKEAFRQLSHRFHGKGSGKMKTERRMKKLDEEALLKKMSSSDTPLGTVALLQEKQKAQKTPYIVLSGSGKSMNANTITK

Target: full-length Epac1 with a C-terminal FLAG/HA tandem epitope tag (human) (UniProt O95398)
Test: affinity purification with mass spectrometry

binding, binds:
Annexin A2 (from UniProt P07355 1-339)
Importin β1 (from UniProt Q14974 1-876)
Nup98 (from UniProt P52948 1-880)
PIAS1 (from UniProt O75925 1-651)
RanBP2 (from UniProt P49792 1-3224)
SUMO1 (from UniProt P63165 1-97)
SUMO2 (from UniProt P61956)
SUMO3 (from UniProt P55854 1-92)
SUMO-conjugating enzyme E2 (UBC9) (from UniProt P63279 1-158)
B1

Results are given in words; binding and its absence hold for the method and conditions named. Binding seen in cells or lysates may run through a third protein. A yes stands for co-enrichment or nearness to the bait. Other partners may have been found.
